One compound from PMC5021965 (Scientific Reports, 2016) can be followed below.

For data set [1], the system named is primary rat hepatocytes. In words: Hepatotoxicity in primary rat hepatocytes (MTT cell viability, LDH release). Conditions: 96 h. As to the method:
(§1) Another subset of experimental rats (CON, HFD and DM rats) were used for the primary rat hepatocytes isolation. […] Primary hepatocytes were isolated from experimental rats in a modified two-step collagenase perfusion method as previously reported. An aliquot of the hepatocyte suspension (at a density of 2.5 × 10^5/ml) was seeded in collagen-precoated plates. Following 4-h incubation, the medium was replaced with 500 μl fresh cultured medium. Twenty-four hours after plating, the medium was removed and the hepatocytes were overlaid with BD matrigel (0.25 mg/ml) in feeding medium (DMEM containing […] dexamethasone and 1% ITS) and cultured for another 24 h at 37 °C in a humidified atmosphere containing 5% CO2 for following experiments.
(§2) ROS generation was simultaneously measured using DCFH-DA as a fluorescent probe.
In general terms: LDH in the medium is a marker of cell lysis.

Data set [2] relates to primary rat hepatocytes. In words: ROS generation in primary rat hepatocytes (DCFH-DA probe). The format is cell-based. Conditions: primary rat hepatocytes, 2, 10 and 30 μM, 96 h. As to the method:
as §1, §2

The subject of data set [3] is diabetic rats. Conditions: DM-AM: 20 mg/kg, 10 days.
Data set [4] in a line: in vivo. Conditions: male, rat, po, 40 mg/kg.

As for `CC(C)c1c(C(=O)Nc2ccccc2)c(-c2ccccc2)c(-c2ccc(F)cc2)n1CC[C@@H](O)C[C@@H](O)CC(=O)O` [atorvastatin, Atorvastatin calcium], the “hepatotoxicity in primary hepatocytes of CON rats” value in data set [1] (only at high concentration (30 μM)) is “obvious hepatotoxicity”. Moreover, the “decrease of cell viability compared with vehicle treatment” value in data set [1] (primary hepatocytes of DM rats, 30 μM) came out at 50%. In addition, in data set [2], the “generation of ROS” value is “concentration-dependently increased”. Moreover, the “level of GSSG/T-GSH in liver compared with DM rats” value in data set [3] is on record as “significant increase”. The same compound showed an AUC in data set [4] (AUC) of 1350 ng·h/mL. The compound further gave a Cmax in data set [4] (Cmax) of 194 ± 24.9 ng/mL.

As usually defined, the AUC is the area under the concentration-time curve, a measure of exposure. A high value points to more exposure. The Cmax is the peak of the concentration-time curve.
